PubChem BioAssay AID1259308 | NCATS | 2017

Screen: 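Candidate targets for better recombinant protein yield in mammalian cells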 (primary screen)
Cell system: human HEK293 embryonic kidney cells stably expressing firefly luciferase (HEK-CMV-Luc2-Hygro)
Knock-down reagent: single siRNA against human genes, 0.8 pmol siRNA per well
Duration: 72 h
Measured: 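Reporter luminescence and viable-cell signal on separate replicate plates, given as percent of non-targeting control and median/MAD z-scores, plus per-cell luciferase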
Direction: total luciferase, z-score: higher = more reporter protein produced
Active means: 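Active when the median/MAD z-score for overall luciferase is greater than 3; a gene was taken forward for validation with new siRNAs if at least two of its three siRNAs passed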
Calls: active = raised luciferase; inactive = no rise
Shown is a random part of about 59,000 reagents. In the full data, about 1,510 (2.6%) got an active call. 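Calls use total luciferase alone and ignore viability, so some active siRNAs may act by altering cell number.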 The numbers tell different reagents against one gene apart. Further read-outs or replicates are left out here.

gene knocked down	reagent	total luciferase, z-score	Call
FAM230A	1	1.25	inactive
FAM230A	2	-0.754	inactive
FAM230A	3	1.69	inactive
NEUROG2	1	-0.197	inactive
NEUROG2	2	-0.0597	inactive
NEUROG2	3	-1.02	inactive
SLC7A7	1	-0.0369	inactive
SLC7A7	2	0.832	inactive
SLC7A7	3	-0.99	inactive
ZNF669	1	-0.294	inactive
ZNF669	2	0.133	inactive
ZNF669	3	1.81	inactive
PCOLCE	1	0.234	inactive
PCOLCE	2	0.305	inactive
PCOLCE	3	1.44	inactive
ZNF200	1	0.425	inactive
ZNF200	2	1.42	inactive
ZNF200	3	-0.872	inactive
CALML6	1	-0.226	inactive
CALML6	2	0.385	inactive
CALML6	3	-1.68	inactive
MTG2	1	-0.917	inactive
MTG2	2	-0.566	inactive
MTG2	3	-2.09	inactive
